{"sequences": {"note": "Sequences of proteins named here, by UniProt entry; tags and fusion partners are left off. A change or cut given only in a name is not applied to a line headed by its entry.", "UniProt O94782": "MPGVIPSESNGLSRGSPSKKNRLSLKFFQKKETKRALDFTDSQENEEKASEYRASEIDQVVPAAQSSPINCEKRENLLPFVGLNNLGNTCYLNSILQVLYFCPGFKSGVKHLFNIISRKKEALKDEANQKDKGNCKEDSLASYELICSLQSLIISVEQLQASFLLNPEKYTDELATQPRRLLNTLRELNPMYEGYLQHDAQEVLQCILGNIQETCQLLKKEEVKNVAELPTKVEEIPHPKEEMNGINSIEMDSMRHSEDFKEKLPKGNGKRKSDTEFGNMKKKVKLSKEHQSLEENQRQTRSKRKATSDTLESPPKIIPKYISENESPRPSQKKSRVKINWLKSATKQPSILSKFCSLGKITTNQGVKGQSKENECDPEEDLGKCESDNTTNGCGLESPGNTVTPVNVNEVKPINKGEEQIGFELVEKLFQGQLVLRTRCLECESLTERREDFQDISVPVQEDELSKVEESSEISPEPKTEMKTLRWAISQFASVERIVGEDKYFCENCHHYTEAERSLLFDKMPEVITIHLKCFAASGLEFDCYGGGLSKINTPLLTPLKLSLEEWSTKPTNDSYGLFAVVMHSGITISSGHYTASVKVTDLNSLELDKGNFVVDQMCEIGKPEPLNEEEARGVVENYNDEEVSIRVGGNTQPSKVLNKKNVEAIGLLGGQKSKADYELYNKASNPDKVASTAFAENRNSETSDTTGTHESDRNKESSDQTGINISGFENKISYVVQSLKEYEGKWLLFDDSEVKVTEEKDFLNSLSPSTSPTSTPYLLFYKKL"}, "source": "PubChem BioAssay AID743255", "about": "(National Center for Advancing Translational Sciences (NCATS), 2014)", "note": "Out of some 390,000 compounds screened, about 910 (0.23%) were called active. Inconclusive means that the source gave no clear call. Such entries were picked first, then a sample of the others. The call rests on the fitted dose curve; in most records, active means well fitted inhibition curve with a large enough effect; inconclusive means small, poorly fitted or top-dose-only effect; inactive means no such curve, though single readings can be large or run the other way. Potencies of inconclusive entries are doubtful fits and often do not repeat. On the % scale 0 is the no-effect control and ±100 the full control effect; potency means the concentration at half of the fitted maximal effect.", "data": [{"biological_target": "Ubiquitin carboxyl-terminal hydrolase 1 (Homo sapiens) (UniProt O94782)", "assay": "Inhibitors of USP1/UAF1: Primary Screen; further: nearly all actives have a fitted effect of over 60% in size", "conditions": "recombinant USP1/UAF1, Ub-Rhodamine cleavage fluorescence; activity change, negative = inhibition: at 57.1 µM (top of the series)", "in_short": "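In this screen, compounds sit with the deubiquitinase complex (1nM) for 15 min at room temperature before Ub-Rho is added at 150nM final. Fluorescence rise is then followed for 6 reads every 60 seconds.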", "values": [{"smiles": "COc1cccc(CN(C)CCCn2cnc3c(OC)ncnc32)c1", "Potency": "inconclusive: 0.224 µM [inhibitor, full curve, poor fit]"}, {"smiles": "CC1CCCN(C(=O)CSc2nnc(-c3ccc(S(=O)(=O)N4CCOCC4)cc3)n2C)C1", "note": "(stereo unspecified)", "Potency": "inactive"}, {"smiles": "CCCCCCCCCCCCCCCC[N+](C)(C)CCN(Cc1ccc(OC)cc1)c1ncccn1", "Potency": "inconclusive: 31.6 µM [inhibitor, single point]"}, {"smiles": "N#CCCSCc1ccc2oc(C(=O)O)cc2c1", "Potency": "inactive"}, {"smiles": "Cc1ccc(-c2cc(C(=O)NCc3cnn(C)c3C)c3cc(Br)ccc3n2)cc1", "activity change, negative = inhibition": "inconclusive: -29.7% [inhibitor]"}, {"smiles": "COc1ccc(NS(=O)(=O)c2ccc3oc4ccccc4c3c2)cn1", "Potency": "inconclusive: 31.6 µM [inhibitor, partial curve, poor fit]"}, {"smiles": "CC(=O)Nc1sc(/C(C#N)=C\\c2cccc(Cl)c2)nc1-c1ccc(C)cc1", "Potency": "inconclusive: 4.47 µM [inhibitor, single point]"}, {"smiles": "CCc1ccc(-c2cn3c(n2)sc2cc(C(=O)NC4CCCCCC4)ccc23)cc1", "Potency": "inactive"}, {"smiles": "CC(=O)N1CCc2cc(S(=O)(=O)NC(C(=O)N3CCN(c4ccccc4F)CC3)C(C)C)ccc21", "note": "(stereo unspecified)", "Potency": "inconclusive: 1.78 µM [inhibitor, full curve, poor fit]"}, {"smiles": "CN(C(=O)COC(=O)c1ccc2ccccc2n1)c1ccccc1", "Potency": "inconclusive: 6.31 µM [inhibitor, partial curve, poor fit]"}, {"smiles": "CC1=C(CC(=O)c2ccc(Cl)cc2)C(=O)c2ccccc2C1=O", "Potency": "inconclusive: 28.2 µM [inhibitor, single point]"}, {"smiles": "CCCCN1C(=S)NC[C@@H]1Cc1cccc2ccccc12", "Potency": "inconclusive: 39.8 µM [inhibitor, partial curve, poor fit]"}, {"smiles": "COc1ccc(Cn2c(C)nc([N+](=O)[O-])c2SCC(=O)O)cc1[N+](=O)[O-]", "Potency": "inconclusive: 20 µM [inhibitor, partial curve]"}, {"smiles": "O=C(Nc1nncs1)c1cccc(S(=O)(=O)N2CCc3ccccc32)c1", "Potency": "inactive"}, {"smiles": "O=C(CSc1ccccn1)Nc1nc2c(ccc3ccccc32)s1", "Potency": "inconclusive: 50.1 µM [inhibitor, partial curve, poor fit]"}, {"smiles": "CC(C)C[C@H](NC(=O)C1CC(=O)N(c2ccc3c(c2)OCO3)C1)C(=O)NC1CCCC1", "note": "(stereo partly specified)", "Potency": "inconclusive: 39.8 µM [inhibitor, partial curve]"}, {"smiles": "COc1cc(/C=C2\\SC(=O)N(c3ccc(O)cc3)C2=O)cc(OC)c1OC", "Potency": "inactive"}, {"smiles": "O=C(CN1CCN(S(=O)(=O)c2cc(Cl)ccc2Cl)CC1)Nc1cccc(F)c1", "Potency": "inconclusive: 44.7 µM [inhibitor, partial curve]"}, {"smiles": "O=C(Nc1ccc(NC(=O)c2cc3ccccc3o2)cc1)c1ccccc1", "Potency": "inconclusive: 10 µM [inhibitor, single point]"}, {"smiles": "Cc1ccc2c(c1)N(C(=O)CCC(=O)NCc1cccc(Br)c1)CC(C)O2", "note": "(stereo unspecified)", "Potency": "inactive"}, {"smiles": "O=S(=O)(Cc1cc(Sc2ccccc2)nc(-c2ccccc2)n1)c1ccccc1", "Potency": "inconclusive: 31.6 µM [inhibitor, partial curve]"}, {"smiles": "CC1CC(C)CN(C(C)C(=O)Nc2cc(S(=O)(=O)N3CCCCC3)ccc2Cl)C1", "note": "(stereo unspecified)", "Potency": "inconclusive: 10 µM [inhibitor, partial curve, poor fit]"}, {"smiles": "Cc1cnc(C2OCCO2)c2cccc(N)c12", "Potency": "inconclusive: 17.8 µM [inhibitor, partial curve]"}, {"smiles": "COC(=O)N/N=C\\c1cc(Br)ccc1OCc1ccccc1", "Potency": "inactive"}, {"smiles": "Nc1ccc2nn(-c3ccccc3)nc2c1", "Potency": "inconclusive: 2 µM [inhibitor, full curve, poor fit]"}, {"smiles": "Cc1ccc(Cc2c(-c3ccccc3)nc3ccc(Cl)cn23)cc1", "Potency": "inconclusive: 0.282 µM [inhibitor, full curve]"}, {"smiles": "COC(=O)c1nnn(-c2nc(N3CCOCC3)nc(N3CCOCC3)n2)c1C", "Potency": "inconclusive: 39.8 µM [inhibitor, single point]"}, {"smiles": "Oc1ccc(NCc2cccc(OCc3ccccc3)c2)cc1", "Potency": "inconclusive: 39.8 µM [inhibitor, partial curve, poor fit]"}, {"smiles": "O=C(O)c1ccc2c(c1)ncn2-c1ccc(F)c(F)c1", "Potency": "inconclusive: 50.1 µM [inhibitor, single point]"}, {"smiles": "CCn1c(SCC(=O)Nc2cc(OC)c(OC)c(OC)c2)nnc1-c1cccs1", "Potency": "inconclusive: 28.2 µM [inhibitor, single point]"}, {"smiles": "CC(=O)c1c(C)[nH]c(C(=O)NC(C)c2ccccc2)c1C", "note": "(stereo unspecified)", "Potency": "inactive"}, {"smiles": "CON(c1nc(N(C)C)nc(N(C)C)n1)S(=O)(=O)c1ccccc1Cl", "activity change, negative = inhibition": "inconclusive: -27.1% [inhibitor]"}, {"smiles": "CCCCNC(=O)c1onc(CSc2cccc(OC)c2)c1C(=O)NCCCC", "Potency": "inconclusive: 89.1 µM [inhibitor, partial curve, poor fit]"}, {"smiles": "CCC(=O)N(CCC(c1ccccc1)c1ccco1)Cc1cccs1", "note": "(stereo unspecified)", "Potency": "inactive"}, {"smiles": "O=c1c(C(c2ccc(F)cc2)c2c(O)nc3n(c2=O)CCS3)c(O)nc2n1CCS2", "Potency": "inconclusive: 12.6 µM [inhibitor, partial curve, poor fit]"}, {"smiles": "FC(F)(F)c1ccnc(Sc2n[nH]c(C(F)(F)F)n2)c1", "Potency": "inconclusive: 0.398 µM [inhibitor, full curve, poor fit]"}, {"smiles": "O=C(c1cnn2ccccc12)N1CCCc2ccccc21", "Potency": "inconclusive: 1 µM [inhibitor, full curve, poor fit]"}, {"smiles": "COc1ccc(OC)c(NC(=O)c2cc3c(=O)oc4ccccc4c3s2)c1", "Potency": "inconclusive: 44.7 µM [inhibitor, partial curve]"}, {"smiles": "CCc1c(C)nc(SCC(=O)N2CCN(c3ccccc3OC)CC2)[nH]c1=O", "Potency": "inconclusive: 0.631 µM [inhibitor, full curve, poor fit]"}, {"smiles": "CCC(C(=O)OC(C)C)c1ccc2ccccc2c1", "note": "(stereo unspecified)", "Potency": "inconclusive: 2.51 µM [inhibitor, full curve, poor fit]"}, {"smiles": "C=CCNC(=O)c1ccccc1NS(=O)(=O)c1ccc(OC)c(C(=O)N2CCOCC2)c1", "Potency": "inconclusive: 7.08 µM [inhibitor, partial curve]"}]}]}
